## Percent effect of library compounds

Chains of the proteins cited; added tags and fusions are not shown. Residues count along the entry.
UniProt A4I591, 1-473: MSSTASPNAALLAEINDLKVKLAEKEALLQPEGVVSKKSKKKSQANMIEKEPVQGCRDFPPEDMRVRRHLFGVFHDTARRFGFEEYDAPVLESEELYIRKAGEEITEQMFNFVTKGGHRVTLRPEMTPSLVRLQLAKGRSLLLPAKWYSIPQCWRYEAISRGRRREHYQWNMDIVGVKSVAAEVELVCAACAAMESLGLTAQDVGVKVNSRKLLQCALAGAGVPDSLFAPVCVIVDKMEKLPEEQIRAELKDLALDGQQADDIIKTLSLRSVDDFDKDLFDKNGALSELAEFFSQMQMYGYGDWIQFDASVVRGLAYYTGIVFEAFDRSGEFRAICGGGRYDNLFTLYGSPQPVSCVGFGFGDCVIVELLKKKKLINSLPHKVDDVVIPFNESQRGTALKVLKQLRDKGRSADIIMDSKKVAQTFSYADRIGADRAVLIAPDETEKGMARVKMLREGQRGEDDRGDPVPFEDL
UniProt P9WNZ1, whole entry: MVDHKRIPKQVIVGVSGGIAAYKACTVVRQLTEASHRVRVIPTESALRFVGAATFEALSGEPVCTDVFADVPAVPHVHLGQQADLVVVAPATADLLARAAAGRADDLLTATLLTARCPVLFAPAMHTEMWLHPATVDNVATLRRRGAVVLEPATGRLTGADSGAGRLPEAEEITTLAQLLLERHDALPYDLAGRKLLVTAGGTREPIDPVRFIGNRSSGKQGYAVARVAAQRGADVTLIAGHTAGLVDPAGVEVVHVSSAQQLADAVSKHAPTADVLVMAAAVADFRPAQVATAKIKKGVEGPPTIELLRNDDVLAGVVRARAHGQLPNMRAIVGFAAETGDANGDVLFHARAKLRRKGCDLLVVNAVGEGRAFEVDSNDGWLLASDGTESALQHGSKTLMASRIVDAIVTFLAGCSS

Measurements from “University of Dundee, Small-Polar-MMV Screening Library” (2021), ChEMBL document CHEMBL3988442.

LiHisRS: 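Histidine-tRNA ligase, Leishmania infantum (UniProt A4I591). Enzyme assay of histidyl-tRNA synthetase; the read-out is not stated. Tested at 30 µM. Higher reads as stronger inhibition (inferred: compounds with an IC50 in retests scored well above the rest). The assay is labelled LdHisRS but filed under L. infantum. Size under these conditions: about 69,000 compounds, about 410 of them at 50% or above in at least one test.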
Leishmania in macrophages: 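Cell assay of Leishmania donovani living inside macrophages; the read-out is not stated. Compounds at 30 µM. Direction is inferred from retests: higher values go with stronger inhibition. Size under these conditions: about 69,000 compounds, about 1,000 of them at 50% or above in at least one test.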
CoaBC: 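Coenzyme A biosynthesis protein CoaBC, Mycobacterium tuberculosis (UniProt P9WNZ1). Enzyme assay of CoaBC with a phosphate dye (Biomol Green) read at 650 nm. Concentration: 30 µM. Direction is inferred from only a few compounds that gave an IC50; most scored high, so higher reads as stronger inhibition. Most strong results did not repeat in a second test. Size under these conditions: about 67,000 compounds, about 40 of them at 50% or above in at least one test.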

Results are given as percent effect. The controls that fix the scale are not given in the record; negative values are as filed. Compounds were drawn at random from those tested, without regard to their results. Two or more numbers in one place are separate tests of the same structure; such repeats can differ widely. A dash means the value is not listed here; it may have been measured.

SMILES | LiHisRS | Leishmania in macrophages | CoaBC
O=C(O)C(F)(F)F.O=C(O)C(F)(F)F.[H][C@@]12CCCO[C@]1([H])[C@H](OCCCn1cccn1)CN2c1nnc(C)s1 | - | 15.45% | -
Cc1ccc(NC(=O)N(C)C)c(C(=O)OCC(=O)NC2CCCC2)c1 | -10% | -2.811% | 3.96%
COC(CNC(=O)c1ccc(NC(C)=O)cc1)c1cccc(Cl)c1 (centres undefined) | 7.843% | 5.629% | -0.1227%
COc1cccc2ccn(CC(=O)NC(C)C)c12 | -5.263% | 22.78% | 1.263%
O=C1CC(c2ccc(O)cc2)c2sc(C(=O)O)c(-c3ccccc3)c2N1 (centres undefined) | 20.78% | -4.012% | 1.277%
Cc1cc(NC(=O)CNC2CCc3ncnn3C2)no1 (centres undefined) | 10.91% | 25.13% | 6.122%
CC(C)c1nn(C)c(N(C)C)c1CNC(C)c1ccc2c(c1)OCO2.Cl (centres undefined) | - | -7.502% | -
CN(Cc1nnc(C2CC2)n1C)C1CCN(Cc2ccc(F)cc2)C1 (centres undefined) | 9.524% | 41.99% | 5.338%
CC1CN(CC(=O)NC2CCOCC2)CCN1Cc1nccn1C (centres undefined) | 16.51% | 26.88% | 9.091%
CN(c1ccc(-c2nc(C3CC3)no2)cn1)C1CCOCC1 | 4% | 26.45% | 0%
Cc1nc(-c2ccccc2)sc1CNC1CCc2ncnn2C1 (centres undefined) | 8.696% | 10.35% | 0.6452%
CC1CCC(NS(=O)(=O)CC(=O)NCC2CCC2)CC1 (centres undefined) | 2.381% | 2.175% | 2.67%
CCOc1ccc(N2CCCN=C2NC(=O)c2ccc(Cl)cc2)cc1 | 6.897% | -54.8% | 2.309%
[H][C@@]12CC(=O)/C(=C(\C)NC(=O)c3ccccn3)[C@]1([H])C2(C)C | - | -5.146% | -
CCN(CC)CCNc1nc(C(C)C)nc2c(C)nn(CC)c12 | 8.621% | 39.7% | -5.081%
[H][C@]12CC[C@]([H])(CN(C(=O)N(C)C)C1)N(C(=O)c1cccnc1SC)C2 | - | 30.97% | -
Cn1c(-c2ccccc2)nn(CCNS(=O)(=O)c2ccccc2Cl)c1=O | 10.43% | 8.725% and 6.465% | 1.48%
COCCN(C)C(=O)c1ccc2onc(-c3coc(C)n3)c2c1 | 9.091% | -53.47% | 2.415%
CCc1c(C)[nH]c(C(C)(C)N)nc1=O | 26.47% | - | 4.073%
CS(=O)(=O)N1C[C@H]2CCCN(Cc3cccs3)[C@H]2C1 | 5.263% | - | -0.2114%
O=C(NC1CC1)C1=CC2(CCN(CCO)CC2)c2ccccc21.O=C(O)C(F)(F)F | - | 4.162% | -
Cc1nc(C)c(CN2CCOC[C@H](Oc3ccc(S(C)(=O)=O)cc3)C2)s1 | 8.333% | 26.76% | 2.581%
c1cc(OCc2ccc3c(c2)OCCO3)ccc1CNC1CC1 | 17.14% | - | 0.135%
COc1c(CNCc2ccc(C(=O)N(C)C(C)C)cc2)c(C)nn1C | 10.26% | 21.5% | -8.579%
O=C(CCc1cscn1)NS(=O)(=O)c1ccc2ccccc2c1 | -39.42% | 25.87% | 8.861%
c1cnc(N2C[C@@H]3CC[C@H](C2)N(Cc2ccsc2)C3)nc1 | 13.33% | - | -12.02%
C/C=C(\C)CN1CCCn2nc(CNC(=O)C3CCC3)cc2C1 | 15.2% | -1.067% | -1.327%
Clc1cc(N2CCC(N3CCCC3)CC2)nc2[nH]ccc12 | 30.61% | 0.8405% | -6.446%
Cc1nnc(SCCNC(=O)CC2CCc3ccccc32)s1 (centres undefined) | 18.31% | 1.029% | 8.696%
CCN1CCC2(CCC1=O)CN(C1CCOCC1)CCN2C (centres undefined) | 8.197% | -0.9403% | 8.874%
COc1ccc(-c2nc(CN3CCc4cncnc4C3)no2)cc1 | 18.35% | 8.677% | 2.302%
c1ncn(CC2CCCN(CC3CCCCC3)C2)n1 (centres undefined) | 7.292% | 24.17% | -1.786%
O=C(O)c1csc(S(=O)(=O)N2CCCc3cc(OC(F)F)ccc32)c1 | 8.824% | 11.09% | -3.259%
CS(=O)(=O)N1CCCCC1CCc1ccc(O)cc1 (centres undefined) | 17.81% | -1.862% | -5.383%
[H][C@@]12C[C@H](C(=O)NCc3ccccc3)[C@@]([H])(CN(C(=O)NC3CCCC3)C1)O2 | - | 7.97% | -
COc1c(CNCc2ccccc2Cn2ccnc2)c(C)nn1C | 12.5% | 42.31% | 10.31%
[H][C@@]12COC[C@@H](CC(=O)Nc3cnccn3)[C@]1([H])CN(C1CCOCC1)C2 | - | -19.74% | -
CC(C)N(C)Cc1ncn2c1CN(S(=O)(=O)c1cccs1)CCC2.O=C(O)C(F)(F)F | - | -13.6% | -
CC(C)c1nc2n(n1)CC(NCc1nc(-c3ccccn3)no1)CC2 (centres undefined) | 6.612% | 8.073% | -3.24%
c1sc(C2CCCC2)nc1CN1CCn2c(nnc2C2CC2)C1 | 27.69% | -10.64% | -3.71%
O=C(O)C(F)(F)F.O=C(O)C(F)(F)F.[H][C@@]12CN(Cc3cc[nH]n3)C[C@]1([H])OCCN2CC1CC1 | - | 9.251% | -
CCCc1nc(C)cc(N2CCC3(CCC(=O)N(CCCO)C3)CC2)n1 | 8.197% | 10% | 1.288%
Cc1noc(C)c1CNC1CCN(c2ccccc2OC(F)F)C1 (centres undefined) | -1.429% | 16.76% | -7.172%
CN(C)S(=O)(=O)N1CC(c2nc(-c3ccsc3)no2)C1 | 15.25% | 28.67% | 2.384%
[H][C@@]12CS(=O)(=O)C[C@]1([H])N(Cc1ccc(F)c(C)c1)CCN2CC1CC1 | - | 5.688% | -
COCc1noc(C2(c3cccc(Cl)c3)CCOCC2)n1 | -6.849% | 1.185% | -0.641%
O=c1cc(N2CCNCC2)cnn1Cc1noc(C2CCCC2)n1 | 15.56% | 9.212% | 3.406%
CCOC(=O)c1cnn(C2CCN(C(=O)CC3CCCC3)CC2)c1N | 16.81% | 33.84% | 4.206%
CCn1ncc2c1C(COC)CN(Cc1nccs1)C2 (centres undefined) | 6.944% | -5.863% | -13.33%
COc1ccc(NC(=O)c2cnc(C3CCN(C)CC3)nc2C)cc1 | 4.196% | 1.3% | -9.685%
CCn1c(N)nc2cc(C(=O)NCCc3ccccc3F)cnc21 | 10.84% | -34.47% | 7.722%
CN(C(=O)c1ccc(C#N)cc1)C1CCN(c2ccccn2)CC1 | 10.53% | 4.056% | -2.419%
N#Cc1cccc(OC23CCCN(CC2)C3)c1 (centres undefined) | 6.122% | 2.405% | 5.511%
O=C(NCCC1COc2ccccc2O1)c1ccc(-c2cc[nH]n2)nc1 (centres undefined) | 9.836% | 19.13% | 5.411%
CN(C)CCOCC1CN(Cc2cccc(F)c2)Cc2nccn2C1 (centres undefined) | 5.319% | - | -15.67%
CC(=O)Nc1nc(C(=O)NCc2ccc(N3CCOC(C)C3)nc2)cs1 (centres undefined) | 13.04% | 44.67% | 9.796%
COc1ccc(CC(=O)N2Cc3nccn3CC(CN(C)C)C2)cc1 (centres undefined) | 7.447% | - | 0.1616%
O=C(O)C(F)(F)F.[H][C@@]12CCN(CCc3ccccc3)C[C@@]1([H])[C@H](C(=O)NC1CCC1)CCO2 | - | 15.34% | -
OC[C@H]1CC[C@]2(CC1)CN(Cc1ccccc1F)Cc1ccccc1O2 | 19.44% | - | -3.056%
CC(Cn1cccn1)NCc1csc(-c2cccs2)n1 (centres undefined) | 16.67% | 7.77% | 2.254%

Some entries from above, unchanged:

| SMILES | LiHisRS | Leishmania in macrophages | CoaBC |
|---|---|---|---|
| `O=C(O)C(F)(F)F.[H][C@@]12CCN(CCc3ccccc3)C[C@@]1([H])[C@H](C(=O)NC1CCC1)CCO2` | - | 15.34% | - |
| `COc1ccc(NC(=O)c2cnc(C3CCN(C)CC3)nc2C)cc1` | 4.196% | 1.3% | -9.685% |
| `CC1CN(CC(=O)NC2CCOCC2)CCN1Cc1nccn1C` (centres undefined) | 16.51% | 26.88% | 9.091% |
| `COc1c(CNCc2ccc(C(=O)N(C)C(C)C)cc2)c(C)nn1C` | 10.26% | 21.5% | -8.579% |